Measurements published in publication PMC10112799.
No constants are given. Whether binding was seen depends on the method and setting. Binding seen in cells or lysates may run through a third protein. A yes stands for co-enrichment or nearness to the bait. Other partners may have been found.

Sequences of proteins named here, by UniProt entry; tags and fusion partners are left off.
UniProt O60603: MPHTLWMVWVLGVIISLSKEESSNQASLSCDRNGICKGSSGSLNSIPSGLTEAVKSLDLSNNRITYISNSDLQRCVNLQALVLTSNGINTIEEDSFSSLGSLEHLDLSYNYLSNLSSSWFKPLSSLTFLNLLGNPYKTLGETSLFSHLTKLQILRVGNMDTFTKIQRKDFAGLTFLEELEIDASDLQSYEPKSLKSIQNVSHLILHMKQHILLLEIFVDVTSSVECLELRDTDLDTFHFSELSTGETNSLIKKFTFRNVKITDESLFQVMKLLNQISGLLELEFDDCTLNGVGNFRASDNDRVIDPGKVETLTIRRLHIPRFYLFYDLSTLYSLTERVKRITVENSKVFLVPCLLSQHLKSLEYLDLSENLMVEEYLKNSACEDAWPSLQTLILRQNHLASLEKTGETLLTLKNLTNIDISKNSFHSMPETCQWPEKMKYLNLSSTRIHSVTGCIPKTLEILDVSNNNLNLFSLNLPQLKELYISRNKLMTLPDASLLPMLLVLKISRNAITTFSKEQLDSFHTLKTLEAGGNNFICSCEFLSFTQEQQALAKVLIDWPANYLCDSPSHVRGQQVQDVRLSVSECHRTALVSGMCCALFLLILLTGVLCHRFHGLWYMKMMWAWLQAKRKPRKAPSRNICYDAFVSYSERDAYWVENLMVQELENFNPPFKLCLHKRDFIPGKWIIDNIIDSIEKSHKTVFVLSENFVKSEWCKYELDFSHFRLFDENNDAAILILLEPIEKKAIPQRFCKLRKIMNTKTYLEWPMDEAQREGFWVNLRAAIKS

Target: Toll-Like Receptor 2 (TLR2), native (human (endogenous in THP1 and in primary human macrophages)) (UniProt O60603)
Assay: affinity purification with mass spectrometry; THP1 macrophages infected with P. gingivalis MOI 10 for 30 min or not infected; live cells cross-linked with DSP (4°C, 2 h); native TLR2 immunoprecipitated with anti-TLR2 (T2.5) on protein G beads; partners eluted with DTT; eluate and beads analysed by LC-MS/MS

Vinculin (VCL), endogenous (from UniProt P18206-2)
binding: binds
